Laboratory results: PubChem BioAssay AID720505 (Drosophila RNAi Screening Center, 2013)
The deposit covers about 20,000 reagents; shown is a random part of those with a known target gene and a result. Of all reagents, about 2,100 (10%) are marked active. 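Raw plate signals without normalisation; calls rest on control-based scores that were not deposited; replicate 2 separates called from uncalled poorly.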 A plus sign joins genes that one reagent is predicted to hit. Reagent sequences are not shown. Not given: the amount of reagent, the time to read-out.

Screen: 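Fly regulators or components of the CRAC channel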 (primary screen)
System: Drosophila S2R+ cells
Knock-down reagent: long dsRNA against Drosophila genes
Challenge: thapsigargin (2 µM) in calcium-free buffer to empty internal stores, then 2 mM calcium added back
Read-out: 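Fluo-4 signal in 384-well plates read on a FLIPR after thapsigargin (2 µM, calcium-free) store depletion and 2 mM calcium add-back; unnormalised mean endpoint per well; screen run twice, selected wells retested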
Direction: calcium signal and retest calcium signal: higher = more calcium entry after store depletion
Call rule: 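About 1500 genes called as lowering calcium entry, by varying amounts, judged against per-plate control wells with STIM1 as positive and Rho1 as negative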
Meaning of the calls: active = called as lowering calcium entry; inactive = not called

Gene	amplicon	calcium signal, replicate 1	calcium signal, replicate 2	retest calcium signal, replicate 1	retest calcium signal, replicate 2	Call
CG16965	DRSC02547	96.1	109			inactive
kirre	DRSC18785	77.8	162			inactive
PIG-U	DRSC02193	107	93.9			inactive
Bace	DRSC02197	91.3	99.3			inactive
CG14907 + Mettl4	DRSC15026	114	131			inactive
CG14907 + Mettl4	DRSC15027	92.6	111			inactive
aqz	DRSC16570	126	164			inactive
CG9826	DRSC04570	115	172			inactive
CG6465	DRSC16046	101	158			inactive
CG42365	DRSC04266	233	123			inactive
CG7054	DRSC16185	225	245			inactive
shtd	DRSC20166	174	122			inactive
CG6610	DRSC10674	109	44.4			inactive
ND-B18	DRSC19947	69.5	129			active
CG15638	DRSC01875	83.8	88.7			inactive
lncRNA:noe	DRSC22747	127	193			inactive
slv	DRSC07685	64.9	77.2			active
CG13454	DRSC10001	104	132			inactive
Tmem43	DRSC10964	67.3	50.2			active
Nil	DRSC15953	184	112			inactive
Nil	DRSC23322	97.1	153			inactive
GrlHz	DRSC04424	146	87			inactive
mthl13	DRSC05238	78.6	139			inactive
CG10384	DRSC03933	129	7700			inactive
CG10384	DRSC04067	65.4	137			active
Npc2h	DRSC14297	176	136			inactive
CG11664	DRSC18650	107	132			inactive
CG30053	DRSC07260	84.8	192			inactive
CG13862	DRSC14712	277	160			inactive
feo	DRSC19398	119	150			inactive
CG5013	DRSC15695	125	156			inactive
CG4716	DRSC06884	146	158			inactive
ORY	DRSC22883	117	110			inactive
CG32453	DRSC21673	171	89.5			inactive
CG6184	DRSC15986	249	169			inactive
CG10527	DRSC04078	170	111			inactive
CG11279	DRSC09837	78.9	128			inactive
goe	DRSC19345	96.3	158			inactive
mIF2	DRSC14510	162	125			inactive
fln	DRSC11346	118	112			inactive
mAChR-A	DRSC04702	144	186			inactive
Arf4	DRSC17195	74.6	129			inactive
CG2930	DRSC17730	134	167			inactive
RpS19a	DRSC20281	66	83.2			active
CG9372	DRSC11068	115	113			inactive
Tsp42Eh	DRSC06190	82	89.9			inactive
shrb	DRSC07061	146	94.1			inactive
CG31344	DRSC16069	147	132			inactive
Zasp67	DRSC10169	59	103			active
asRNA:CR30267	DRSC21628	154	103			inactive
CG13428	DRSC06390	135	119			inactive
CAH8	DRSC15784	183	135			inactive
CG7294	DRSC03041	111	94.4			inactive
dop	DRSC10655	118	58.2			inactive
CG10479	DRSC09733	94.4	87.8			inactive
Sry-alpha	DRSC16867	108	121	6597	124	inactive

Single entries from the list.
Value for mIF2 [DRSC14510] in “Call”: inactive
Result of CG11279 [DRSC09837] under “calcium signal, replicate 2”: 128
For “calcium signal, replicate 1”, CG9826 [DRSC04570] has 115
